The subject of the data set is mSWI/SNF complexes. The data set can be described thus: mSWI/SNF complex purification with HA-tagged baits and mass spectrometry (peptide counts). Also noted: species or system human. To be noted: 293_HA-DPF2 purification; for Total: total peptides; for Unique: unique peptides.

B1: ANKRD49 (protein, UniProt Q8WVL7 1-239, looked up)
Ankyrin repeat …: MEKEKGNDDGIPDQENSLDFSEHFNQLELLETHGHLIPTGTQSLWVGNSDEDEEQDDKNEEWYRLQEKKMEKDPSRLLLWAAEKNRLTTVRRLLSEKATHVNTRDEDEYTPLHRAAYSGHLDIVQELIAQGADVHAVTVDGWTPLHSACKWNNTRVASFLLQHDADINAQTKGLLTPLHLAAGNRDSKDTLELLLMNRYVKPGLKNNLEETAFDIARRTSIYHYLFEIVEGCTNSSPQS
For the molecule B1, the Total is on record as 1 and the Unique is recorded as 1.

B2: TCP11L2 (protein, UniProt Q8N4U5 1-519, looked up)
T-complex protein 11-like …: MPFNGEKQCVGEDQPSDSDSSRFSESMASLSDYECSRQSFASDSSSKSSSPASTSPPRVVTFDEVMATARNLSNLTLAHEIAVNENFQLKQEALPEKSLAGRVKHIVHQAFWDVLDSELNADPPEFEHAIKLFEEIREILLSFLTPGGNRLRNQICEVLDTDLIRQQAEHSAVDIQGLANYVISTMGKLCAPVRDNDIRELKATGNIVEVLRQIFHVLDLMQMDMANFTIMSLRPHLQRQLVEYERTKFQEILEETPSALDQTTEWIKESVNEELFSLSESALTPGAENTSKPSLSPTLVLNNSYLKLLQWDYQKKELPETLMTDGARLQELTEKLNQLKIIACLSLITNNMVGAITGGLPELASRLTRISAVLLEGMNKETFNLKEVLNSIGIQTCVEVNKTLMERGLPTLNAEIQANLIGQFSSIEEEDNPIWSLIDKRIKLYMRRLLCLPSPQKCMPPMPGGLAVIQQELEALGSQYANIVNLNKQVYGPFYANILRKLLFNEEAMGKVDASPPTN
As to B2, the Total was 1 and the Unique worked out at 1.

For the origin of these results see patent US12729225B2, “Non-canonical SWI/SNF complex and uses thereof” (Dana-Farber Cancer Institute, Inc., priority 2018, dated 2026).
